# Measurements: PubChem BioAssay AID1508600 (Functional Genomics Laboratory (NCATS/FGL), 2020)
# Hit rate of the full screen: of about 53,000 sequences, about 3,700 (7%) were called active.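 Rule for the calls: active = gene knockdowns whose robust z-score for IL-1 alpha signal is at least 2 or at most -2, so actives lie on both sides; inactive = the rest.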 Some of the results follow.
# Experiment: Components of the Cytosolic LPS Sensing Pathway: Gene Identification via Genome-wide siRNA Screen;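 note: robust z of the log signal after scaling to non-targeting control siRNA wells of the plate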
# Conditions: RAW264.7 macrophages, IL-1a HTRF, actives lie on both sides, screened at 100 nM (by protocol), cells primed 5 h with Pam3CSK4 first
# In short: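 Cells (RAW264.7, 1×10^4 per well) were transfected with siRNA at 100 nM and cultured 48h at 37 degrees C. Pam3CSK4 was added for 5 hours; LipidA transfection followed for 24 hour. IL-1a was then measured by HTRF.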
row,Sequence,z-score
1,CGGACUUUUUUGGAUUUUCTT against Zbtb18,inactive: 1.11
2,UCGAUAGCCUCAAUCAGCATT against Zfp58,inactive: -1.99
3,CGUAGACCUUUUCCACUACTT against Plod1,inactive: 0.45
4,GGGACAAGAUCUGAACUUCTT against Rgl3,inactive: -0.36
5,UCAUUGAGAAAGGAGAAGATT against Cox17,inactive: -0.547
6,CCUGUUAGCUGAAUUCAACTT against Entpd4,inactive: 0.91
7,CCCUCUGGUUCUAGCUGUUTT against Afap1,inactive: 0.381
8,GGUUUUCCAAAAAACACCCTT against 1700084J12Rik,inactive: 0.544
9,GGCAACUGACUAGCUGAUUTT against Atp2a1,inactive: -1.58
10,GCAUAAAGAGGCCAUACCCTT against Zmiz1,inactive: 0.743
11,GGAAAAUCAAUACAUUGGATT against Pxk,inactive: -0.154
12,CCUUUAGGUUACAAAAACCTT against Pdgfd,inactive: 0.216
13,GGGCAUAUAUUCAAGACUUTT against Olfml1,inactive: 1.35
14,GGUUCAGGUUCUUCUAAAATT against Cd109,inactive: 1.42
15,CCUCGAAACUCAUUUCCAGTT against Prkch,inactive: -0.603
16,GCCUGUACAUGACGGAAAGTT against Bag4,inactive: 0.155
17,GGCUUAGAUCUACUAUUUCTT against Fv4,inactive: 0.0497
18,CCCUGUUGAAGAGACGAGATT against Mrpl21,inactive: -1.14
19,GGUAAAUGUCUAGAAAUGGTT against Abcd2,inactive: -0.269
20,GGAUCCUCACAAUAAACUUTT against Sult2b1,inactive: -0.0396
21,GGCAUUAAUCCAGUCUUGGTT against A730049H05Rik,inactive: -1.46
22,GCCAAGCAUUACCAUACUUTT against Rab21,inactive: -1.73

row,Sequence,z-score
1,GGACCACCGUGAUCAACAUTT against Ifitm2,inactive: 0.215
2,GGACAAUGGGAGCUAUCGATT against Gpld1,inactive: -1.73
3,CCUAUACUUUUGGUCUUAGTT against Coa7,inactive: -0.778
4,GGAGGAGUGGAUGUGAUUATT against Dao,inactive: -0.27
5,GGAGCUGUUUGACCAAAUCTT against Epb41l5,inactive: 0.439
6,CGACCUUUGAGACUGAAGATT against Septin8,inactive: 0.625
7,GGCUGGACACUGAGAAAAATT against Adcy4,inactive: 1.63
8,GGAUGACUUGUGAAUAUUUTT against Cd70,inactive: -0.842
9,CCCUUAUCUCAUGUGUUAATT against Olfr74,inactive: -0.18
10,GGCUAUGAAACAGUACAAUTT against Alyref,inactive: -1.01
11,AUGAAUUUCUACUCGCCACTT against Pramel26,inactive: 0.0656
12,GGCAAAUAAGAGAUAUCCATT against Chmp3,inactive: 0.793
13,GGAAGUGAGAAGAUGGAUATT against Fam163b,inactive: 0.93
14,GGGACAUUCCUUAUCAUAATT against Pde3a,inactive: -1.43
15,CCGAGGUGAUUAGGAUAACTT against Traf3ip1,inactive: -0.694
16,CGUACUUAUUGUUCCUAUCTT against Wdr93,inactive: 1.67
17,CCAGAAGAACAAGGAAGUATT against Gm6460,inactive: -0.914
18,GCCAAGUGUAGGGACUCAGTT against A630052C17Rik,inactive: -1.66
19,GGAGAUCACACAACAUUUUTT against Ndrg1,inactive: 1.49
20,GGGAAACUGGUACAGUACATT against Ces1c,inactive: -0.317
21,CCUUUGUGGAAUACGUCAUTT against Fa2h,inactive: -0.229
22,GCUACCGUGGGCGAUGUAATT against Dbi,inactive: -0.37

row,Sequence,z-score
1,AGUCUACAACUACUCCUGUTT against Glrx2,inactive: 0.728
2,GCCAUACACAGUGGCAUAATT against Zfp811,inactive: 0.395
3,GGCCAAACAUAGAACUGGUTT against Mbd3l2,inactive: -1.73
4,GCGACAUCACAAGAAUCGATT against Fancd2,inactive: -0.979
5,CCAUAUUCAAGGGUGAAAUTT against Dsg3,inactive: 0.809
6,GGGUUGACUUCAAGAACAUTT against Cxcl2,inactive: 1.5
7,GGCCUCCCUACUUGAAGACTT against Crip3,inactive: -0.0974
8,GGUUAAAUAUACCUAAGGATT against Spo11,inactive: 0.0736
9,GGAGUUUAUAACACAUAGGTT against Adamtsl1,inactive: 0.858
10,GGGAAUUUGGGCAUGAUCATT against Olfr44,active: -2.02
11,GGCGAGAAUUUCAUCGGGATT against Tulp1,inactive: -0.00281
12,CCCUUUUACUGAGAAUAAUTT against Lamtor3,inactive: -0.673
13,CGUCAACUCUACUGGACCATT against Grp,inactive: -0.199
14,GGUCUUCCAAGGUCAGAAGTT against Cyp2d10,inactive: 1.5
15,GGAUCCUUCGGGUCUUAAATT against Kctd9,inactive: 0.646
16,GGGUGAAAUUUUUAAUCGGTT against Lbp,inactive: -0.963
17,GGACAUGCUUAUCCUUUGUTT against Slc38a5,inactive: -1.55
18,GGGAAGAACAUCUCUGCUCTT against S100a3,inactive: 0.141
19,GGAUGAUUCCAAGAUGCUATT against Lin28b,inactive: 0.914
20,GGAUGAAAGUCCUGGACAGTT against Gli3,active: 5.97
21,CCUCUCUAGGCCAUGUUCUTT against 1110008P14Rik,inactive: 0.381
22,GGAAUAUCUUCUGAUUGUCTT against Dynlrb2,inactive: -0.393

row,Sequence,z-score
1,GGAGUCAUAUCACAACUCATT against Ldb2,inactive: 1.22
2,GGAACAGUCACAGACAGCUTT against Vps35l,inactive: -0.189
3,GGAUAUGACUAGGUGAAUUTT against Ebf3,inactive: -1.04
4,GGGAAUAUAAUUAAAGGUGTT against Sptlc2,inactive: -0.653
5,GCCCAGCAUGGAUAGAUUATT against Mis18bp1,inactive: 0.466
6,GGAAUUCAAGUUCAUCCUGTT against P2ry4,inactive: 1.56
7,GGAAAUUUUUUCCUUUCCUTT against Olfr211,inactive: -0.638
8,GGUCACAAGUGUAAUACUATT against Bag4,inactive: 0.333
9,GCACAUAGUGUAUCUAUACTT against Cd86,inactive: -1.24
10,GGACGUGACCAUGAUGUCUTT against Oacyl,active: -3.46
11,GGAGAAGAUCGGAUGGCGATT against Itgb5,inactive: -1.79
12,CGCUUUCACGACAUGGAACTT against Tas1r1,inactive: 0.304
13,AGAGGAAGCUCGAAAACGGTT against Zrsr2,inactive: -0.2
14,GGCAAAAUCCCAUACGAAATT against Itk,inactive: 0.0298
15,CCACAGGUUACAACAUAAATT against Pign,inactive: -1.45
16,GGUAACCAUUUCUUCUGUUTT against Crym,inactive: -0.289
17,GCAAUGGUUUCGGCUACGATT against Hoxb3,active: 2.18
18,GCUGAGCAAUCUGUAGGGCTT against Spry3,inactive: 0.884
19,GGAGUUCACUGUGCUGAUGTT against Ppbp,inactive: -0.536
20,GGGAAACUCUCAGAUGAAGTT against Sh2d7,inactive: -1.9
21,GGAUCUUCGUACUAGAGGCTT against Cenpx,inactive: 0.0358
22,CCCACCACGAAAACUUAUGTT against Hnrnph1,inactive: 0.952

# Shown with tabs: entries from further up.
row	Sequence	z-score
10	GGCUAUGAAACAGUACAAUTT against Alyref	inactive: -1.01
12	GGCAAAUAAGAGAUAUCCATT against Chmp3	inactive: 0.793
16	GGGUGAAAUUUUUAAUCGGTT against Lbp	inactive: -0.963
12	CGCUUUCACGACAUGGAACTT against Tas1r1	inactive: 0.304

# 4 consecutive records already listed, for reference:
row,Sequence,z-score
4,GGGAAUAUAAUUAAAGGUGTT against Sptlc2,inactive: -0.653
5,GCCCAGCAUGGAUAGAUUATT against Mis18bp1,inactive: 0.466
6,GGAAUUCAAGUUCAUCCUGTT against P2ry4,inactive: 1.56
7,GGAAAUUUUUUCCUUUCCUTT against Olfr211,inactive: -0.638

# Remaining list, next part.

row,Sequence,z-score
1,GGCAAGAGCGGAAAAUCACTT against Foxo1,inactive: -0.492
2,GCUAGAUUUGAUGGUUCAGTT against Cacng5,inactive: -1.62
3,GGUUACGAAAAGCUGCCUUTT against Ints14,inactive: -0.125
4,GGUGAAGGUGAACAAGGACTT against Myh9,active: 2.92
5,GGGUAGAAUUGUUUUCCUUTT against Clic4,inactive: 1.51
6,GGCUGUAAGGGAACAGCUATT against Irf2bp1,inactive: -0.615
7,GGAUUCCAAGCUUUCGAAATT against Golim4,inactive: 0.656
8,GGACUGAACAGUAUUAAGUTT against Tmco3,inactive: 0.575
9,CCAGCUAUGAAUCAGAAUGTT against Bend6,active: 2.6
10,GGAGAGGACAAAUUAAAGATT against Ywhae,inactive: 0.763
11,GGGUGCAUUUAAGUUCUAATT against Nrbf2,inactive: 1.49
12,GCUGAAACAGUUUGAGCGATT against Bcar1,inactive: 0.115
13,GGAAACAACCUGCUGAUCGTT against Sp2,inactive: 0.166
14,GGAGACCAUCAAGAAGAGCTT against Rbm47,inactive: -1.36
15,GCUGGUCUAAUCUGGAAACTT against Tmed3,inactive: -1.73
16,CGGAUGCCAUGCAGAACUATT against Tspan7,inactive: 0.22
17,GGAAAAUGAGAGAUUACGATT against Cntln,inactive: 1.32
18,GGCCAUUUUGGAUCAUACATT against Actl6a,inactive: -1.06
19,GGUUUGAGUGGAAAAUUCATT against Csn1s2b,inactive: 0.904
